Test results from patent US20240181073A1, “Antibody-Drug Conjugates Comprising an Anti-BCMA Antibody” (Sorrento Therapeutics, Inc., priority 2021, published 2024).
Some entries share one result that the patent states for a list of compounds.

Tested on: NCI-H929 (BCMA+) cells
Assay: In vitro cell viability assay (Cell Titer-Glo 2.0), Example B1
Assay type: cell-based, human
Settings: Table 5; 4-day assays; AB1 clone; listed as anti-BCMA-AB1-3; read-out: EC50 Values, Cell Line NCI-H929
Protocol: The in vitro efficacies of ADCs anti-BCMA-Compound 1, anti-BCMA-Compound 2, anti-BCMA-Compound 3, anti-BCMA-Compound 4, anti-BCMA-Compound 5, anti-BCMA-Compound 6, anti-BCMA-Compound 7, and anti-BCMA-Compound 8, were evaluated using the following human cancer cell lines: K562, MM.1R and NCI-H929, purchased from the American Type Culture Collection (ATCC; Manassas, VA). The cells were cultured in RPMI-1640 medium (Gibco ThermoFisher; Waltham, MA) supplemented with 10% heat-inactivated fetal bovine serum (FBS: Corning; Corning, NY, USA) and 1× penicillin-streptomycin (Corning) and maintained at 37° C. in a 5% CO2 humidified environment.
The in vitro assays were performed as follows: Tumor cells were harvested by centrifugation at 300 g for 5 minutes and plated into 96-well clear bottom white-walled plates (5,000 to 10,000 cells/well in 50 μL complete medium) and maintained at 37° C. […] After treatment, inhibition of cancer cell growth was determined using the Cell Titer-Glo® 2.0 Cell Viability Assay (Promega; Madison, WI, USA) as described by the manufacturers' protocol. Luminescence was measured using a Perkin-Elmer Envision 2104 Microplate Reader (Waltham, MA).
Data were normalized to non-treated controls using Microsoft Excel (Redmond, WA, USA) and analyzed using GraphPad Prism software (version 8; La Jolla, CA, USA). […]

B1: BCMA-AB1-3: Compound 3 conjugated with anti-BCMA antibody clone BCA7-2C5 (AB1) (conjugate)
VH: EVQLVESGGGLVKPGGSLRLSCAASGFTSSTAWMSWVRQAPGKGLEWVGRIKSKSDGGTTDYAAPVKGRFTISRDDSKNTLFLQMNSLKTEDTAVYYCAKGGGTYGYWGQGTTVTVSS
VL: QSVLTQPASVSGSPGQSVTISCTGTSSAHGGHYYVSWYQQHPGKAPKLMIYDVSNRPSGVSNRFSGSKSGNTASLTISGLQAEDEADYYCGSYTSSGSYVFGTGTKLTVL
EC50: 2 to 5 nM
